Experiment [1] addresses T1, SFPQ (human (endogenous in TREx-BCBL1-RTA)) (UniProt P23246).
T1 sequence: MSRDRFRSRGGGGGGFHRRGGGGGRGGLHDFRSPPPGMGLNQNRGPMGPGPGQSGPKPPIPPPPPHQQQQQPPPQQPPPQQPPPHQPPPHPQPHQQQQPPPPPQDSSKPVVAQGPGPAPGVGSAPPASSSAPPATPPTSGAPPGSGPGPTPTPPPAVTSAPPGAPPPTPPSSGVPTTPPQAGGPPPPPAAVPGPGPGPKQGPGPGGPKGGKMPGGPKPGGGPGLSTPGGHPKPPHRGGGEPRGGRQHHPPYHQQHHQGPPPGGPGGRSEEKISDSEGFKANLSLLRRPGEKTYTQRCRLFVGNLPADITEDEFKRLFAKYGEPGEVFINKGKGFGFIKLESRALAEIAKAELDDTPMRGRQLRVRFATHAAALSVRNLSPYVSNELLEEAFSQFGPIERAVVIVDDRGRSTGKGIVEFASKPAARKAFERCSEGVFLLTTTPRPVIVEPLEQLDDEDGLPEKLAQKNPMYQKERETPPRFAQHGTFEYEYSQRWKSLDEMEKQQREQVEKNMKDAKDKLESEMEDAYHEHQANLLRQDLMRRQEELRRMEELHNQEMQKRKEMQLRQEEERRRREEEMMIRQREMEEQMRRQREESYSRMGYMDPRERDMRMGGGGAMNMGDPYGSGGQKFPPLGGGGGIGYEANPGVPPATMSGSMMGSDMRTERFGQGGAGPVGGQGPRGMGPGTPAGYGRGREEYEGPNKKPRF
Briefly: affinity purification with mass spectrometry.

Protein sequences, listed by entry. Tags and fused reporters are not part of them.
UniProt P12956: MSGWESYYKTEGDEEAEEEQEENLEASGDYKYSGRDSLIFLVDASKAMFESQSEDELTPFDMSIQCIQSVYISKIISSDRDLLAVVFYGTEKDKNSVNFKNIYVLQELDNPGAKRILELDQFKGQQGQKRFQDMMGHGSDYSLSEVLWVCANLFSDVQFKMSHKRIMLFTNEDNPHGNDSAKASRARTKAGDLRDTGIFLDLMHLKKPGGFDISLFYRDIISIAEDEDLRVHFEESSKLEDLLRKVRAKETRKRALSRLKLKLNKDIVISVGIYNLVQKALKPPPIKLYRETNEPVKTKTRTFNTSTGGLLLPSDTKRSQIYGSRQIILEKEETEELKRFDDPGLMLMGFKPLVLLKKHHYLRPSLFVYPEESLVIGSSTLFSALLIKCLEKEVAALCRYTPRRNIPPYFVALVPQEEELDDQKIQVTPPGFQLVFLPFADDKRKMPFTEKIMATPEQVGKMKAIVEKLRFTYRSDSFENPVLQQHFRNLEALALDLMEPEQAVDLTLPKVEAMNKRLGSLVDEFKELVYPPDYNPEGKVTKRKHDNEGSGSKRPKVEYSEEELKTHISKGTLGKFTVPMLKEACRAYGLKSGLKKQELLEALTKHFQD

The target of experiment [2] is T1, SFPQ (human (endogenous in TREx-BCBL1-RTA)). Briefly: affinity purification with mass spectrom.

Results are given in words; binding and its absence hold for the method and conditions named. In cells and extracts the contact can be indirect. A yes stands for co-enrichment or nearness to the bait. Other partners may have been found.

KSHV ORF11 protein: the binding entry in experiment [1] is given as “binds”.
Ku70 (from UniProt P12956 1-609): in experiment [2], the binding result is “binds”.
